No constants are given. Whether binding was seen depends on the method and setting. Binding seen in cells or lysates may run through a third protein. Some binding calls cover weakened binding; strength is not graded here. For some of these results: Sequences can lack the tags named with a protein.
T1: FLAG-HA-RTCB (human) (UniProt Q9Y3I0)
T1 sequence: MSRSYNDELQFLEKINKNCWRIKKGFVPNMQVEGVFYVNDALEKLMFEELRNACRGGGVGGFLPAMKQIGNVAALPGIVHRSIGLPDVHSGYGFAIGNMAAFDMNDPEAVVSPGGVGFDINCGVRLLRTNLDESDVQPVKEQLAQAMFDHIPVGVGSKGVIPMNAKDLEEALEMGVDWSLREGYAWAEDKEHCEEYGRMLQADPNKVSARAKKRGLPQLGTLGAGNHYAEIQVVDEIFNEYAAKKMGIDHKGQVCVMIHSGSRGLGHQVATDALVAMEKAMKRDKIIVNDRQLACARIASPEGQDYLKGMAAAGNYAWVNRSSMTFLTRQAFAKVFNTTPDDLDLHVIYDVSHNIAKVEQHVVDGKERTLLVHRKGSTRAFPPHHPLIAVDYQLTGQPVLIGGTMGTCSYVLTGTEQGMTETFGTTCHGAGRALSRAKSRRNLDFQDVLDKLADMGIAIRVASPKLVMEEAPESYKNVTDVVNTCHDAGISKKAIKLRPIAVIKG

By UniProt entry, the sequences of proteins in these tests, tags left out. Where a name states a change or a piece, a line headed by the entry shows the natural chain unless it says otherwise.
UniProt Q17RN3, whole entry: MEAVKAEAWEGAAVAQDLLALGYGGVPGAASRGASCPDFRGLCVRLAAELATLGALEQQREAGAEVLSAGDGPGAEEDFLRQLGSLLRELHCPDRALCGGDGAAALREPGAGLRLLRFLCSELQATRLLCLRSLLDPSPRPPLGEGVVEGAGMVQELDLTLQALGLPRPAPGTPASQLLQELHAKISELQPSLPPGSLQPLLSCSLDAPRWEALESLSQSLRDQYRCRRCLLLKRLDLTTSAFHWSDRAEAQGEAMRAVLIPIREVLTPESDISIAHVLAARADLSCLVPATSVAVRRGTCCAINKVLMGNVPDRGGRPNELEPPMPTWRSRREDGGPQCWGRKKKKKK


Legend:
Assay in all cases: co-IP
FLAG-HA-RTCB (human) = target: T1, FLAG-HA-RTCB (human)
[1] = target: N-terminally FLAG-HA-tagged, full-length FAM98A (human) (UniProt Q8NCA5)
[2] = target: C-terminally FLAG-HA-tagged FAM98A(Δ336-518) (human) (UniProt Q8NCA5)
[3] = target: N-terminally FLAG-HA-tagged, full-length FAM98C (human) (UniProt Q17RN3)
[4] = target: N-terminally FLAG-HA-tagged FAM98A(Δ336-518) (human) (UniProt Q8NCA5)
[5] = target: C-terminally FLAG-HA-tagged FAM98C (human) (UniProt Q17RN3)

binding (FLAG-HA-RTCB (human)) | binding [1] | binding [2] | binding [3] | binding [4] | binding [5] | Molecule
binds |  |  |  |  |  | FAM98C (from UniProt Q17RN3 1-349)
 | binds | binds | binds | binds | binds | RTCB (enzyme, UniProt Q9Y3I0 1-505) MSRSYNDELQFLEKINKNCWRIKKGFVPNMQVEGVFYVNDALEKLMFEELRNACRGGGVGGFLPAMKQIGNVAALPGIVHRSIGLPDVHSGYGFAIGNMAAFDMNDPEAVVSPGGVGFDINCGVRLLRTNLDESDVQPVKEQLAQAMFDHIPVGVGSKGVIPMNAKDLEEALEMGVDWSLREGYAWAEDKEHCEEYGRMLQADPNKVSARAKKRGLPQLGTLGAGNHYAEIQVVDEIFNEYAAKKMGIDHKGQVCVMIHSGSRGLGHQVATDALVAMEKAMKRDKIIVNDRQLACARIASPEGQDYLKGMAAAGNYAWVNRSSMTFLTRQAFAKVFNTTPDDLDLHVIYDVSHNIAKVEQHVVDGKERTLLVHRKGSTRAFPPHHPLIAVDYQLTGQPVLIGGTMGTCSYVLTGTEQGMTETFGTTCHGAGRALSRAKSRRNLDFQDVLDKLADMGIAIRVASPKLVMEEAPESYKNVTDVVNTCHDAGISKKAIKLRPIAVIKG

More lines, now with the values behind:

Molecule | binding (FLAG-HA-RTCB (human)) | binding [1] | binding [2] | binding [3] | binding [4] | binding [5]
FAM98A (from UniProt Q8NCA5 1-518) | binds |  |  |  |  | 
CGI-99 (protein, UniProt Q9Y224 1-244) MFRRKLTALDYHNPAGFNCKDETEFRNFIVWLEDQKIRHYKIEDRGNLRNIHSSDWPKFFEKYLRDVNCPFKIQDRQEAIDWLLGLAVRLEYGDNAEKYKDLVPDNSKTADNATKNAEPLINLDVNNPDFKAGVMALANLLQIQRHDDYLVMLKAIRILVQERLTQDAVAKANQTKEGLPVALDKHILGFDTGDAVLNEAAQILRLLHIEELRELQTKINEAIVAVQAIIADPKTDHRLGKVGR |  | binds | binds | binds | binds | binds
DDX1 (enzyme, UniProt Q92499 1-740) MAAFSEMGVMPEIAQAVEEMDWLLPTDIQAESIPLILGGGDVLMAAETGSGKTGAFSIPVIQIVYETLKDQQEGKKGKTTIKTGASVLNKWQMNPYDRGSAFAIGSDGLCCQSREVKEWHGCRATKGLMKGKHYYEVSCHDQGLCRVGWSTMQASLDLGTDKFGFGFGGTGKKSHNKQFDNYGEEFTMHDTIGCYLDIDKGHVKFSKNGKDLGLAFEIPPHMKNQALFPACVLKNAELKFNFGEEEFKFPPKDGFVALSKAPDGYIVKSQHSGNAQVTQTKFLPNAPKALIVEPSRELAEQTLNNIKQFKKYIDNPKLRELLIIGGVAARDQLSVLENGVDIVVGTPGRLDDLVSTGKLNLSQVRFLVLDEADGLLSQGYSDFINRMHNQIPQVTSDGKRLQVIVCSATLHSFDVKKLSEKIMHFPTWVDLKGEDSVPDTVHHVVVPVNPKTDRLWERLGKSHIRTDDVHAKDNTRPGANSPEMWSEAIKILKGEYAVRAIKEHKMDQAIIFCRTKIDCDNLEQYFIQQGGGPDKKGHQFSCVCLHGDRKPHERKQNLERFKKGDVRFLICTDVAARGIDIHGVPYVINVTLPDEKQNYVHRIGRVGRAERMGLAISLVATEKEKVWYHVCSSRGKGCYNTRLKEDGGCTIWYNEMQLLSEIEEHLNCTISQVEPDIKVPVDEFDGKVTYGQKRAAGGGSYKGHVDILAPTVQELAALEKEAQTSFLHLGYLPNQLFRTF |  | binds | binds | binds | binds | binds
Ashwin (protein, UniProt Q9BVC5 1-232) MAGDVGGRSCTDSELLLHPELLSQEFLLLTLEQKNIAVETDVRVNKDSLTDLYVQHAIPLPQRDLPKNRWGKMMEKKREQHEIKNETKRSSTVDGLRKRPLIVFDGSSTSTSIKVKKTENGDNDRLKPPPQASFTSNAFRKLSNSSSSVSPLILSSNLPVNNKTEHNNNDAKQNHDLTHRKSPSGPVKSPPLSPVGTTPVKLKRAAPKEEAEAMNNLKPPQAKRKIQHVTWP |  | no binding | no binding | no binding | no binding | no binding

From publication doi:10.1101/2025.08.01.668163
